Laboratory results: PubChem BioAssay AID1259308 (NCATS, 2017)
Assay: 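Genes whose loss raises luciferase production in HEK293 cells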 (primary screen). Cells: human HEK293 embryonic kidney cells stably expressing firefly luciferase (HEK-CMV-Luc2-Hygro). Reagent: single siRNA against human genes, 0.8 pmol siRNA per well. Time to read-out: 72 h. Measurement: 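Reporter luminescence and viable-cell signal on separate replicate plates, given as percent of non-targeting control and median/MAD z-scores, plus per-cell luciferase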. Scale: total luciferase, z-score and total luciferase, % of control: higher = more reporter protein produced; luciferase per cell, z-score: higher = more reporter output per viable cell; viable cells, % of control: higher = more viable cells. Hit rule: 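Active when the median/MAD z-score for overall luciferase is greater than 3; a gene was taken forward for validation with new siRNAs if at least two of its three siRNAs passed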. Meaning of the calls: active = raised luciferase; inactive = no rise.
The whole screen tested about 59,000 reagents; shown is an unselected part. About 1,510 of all reagents (2.6%) were called active. 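Calls use total luciferase alone and ignore viability, so some active siRNAs may act by altering cell number.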 Entries without a mark were called inactive. The numbers tell different reagents against one gene apart.

total luciferase, z-score | total luciferase, % of control | luciferase per cell, z-score | viable cells, % of control | target | reagent no.
-0.133 | 79.2 | -0.197 | 93.3 | PGAP2 | 1
0.35 | 88.8 | 0.554 | 85.8 | PGAP2 | 2
0.745 | 96.7 | 0.204 | 102 | PGAP2 | 3
-1.36 | 54.9 | -2.07 | 106 | SP1 | 1
-1.02 | 61.5 | -1.12 | 92.3 | SP1 | 2
-0.441 | 73.1 | -1.02 | 107 | SP1 | 3
1.36 | 109 | 0.892 | 96.2 | DRAIC | 1
-2.24 | 37.4 | -1.71 | 65.7 | DRAIC | 2
-0.975 | 62.5 | -0.386 | 77.3 | DRAIC | 3
0.0679 | 83.2 | -0.53 | 107 | SLIRP | 1
-0.609 | 69.8 | -0.985 | 101 | SLIRP | 2
-0.771 | 66.5 | -1.18 | 102 | SLIRP | 3
-0.957 | 62.9 | -0.126 | 72.6 | CDK7 | 1
-1.09 | 60.2 | -1.17 | 91.6 | CDK7 | 2
-1.02 | 61.5 | -1.49 | 102 | CDK7 | 3
-0.808 | 65.8 | -0.296 | 79.5 | LZTS3 | 1
0.823 | 98.2 | 0.444 | 97.7 | LZTS3 | 2
-0.875 | 64.5 | -1.29 | 101 | LZTS3 | 3
-0.154 | 78.8 | -0.85 | 110 | MEMO1 | 1
-0.296 | 76 | -0.846 | 106 | MEMO1 | 2
0.0293 | 82.5 | 0.503 | 80.7 | MEMO1 | 3
-0.0499 | 80.9 | -0.332 | 98.7 | PGM1 | 1
-1.13 | 59.5 | -1.11 | 89 | PGM1 | 2
0.608 | 94 | 0.996 | 80.8 | PGM1 | 3
4.12 (active) | 164 | 4.11 | 61.9 | ASIC5 | 1
-1.09 | 60.2 | -1.37 | 96.7 | ASIC5 | 2
0.685 | 95.5 | -0.0517 | 108 | ASIC5 | 3
0.362 | 89.1 | -0.468 | 113 | MAL | 1
0.939 | 101 | 1.08 | 84.6 | MAL | 2
0.185 | 85.6 | 0.758 | 78.3 | MAL | 3
-1.1 | 60 | -1.25 | 93.1 | SLC16A1 | 1
-1.81 | 45.8 | -2.57 | 101 | SLC16A1 | 2
1.45 | 111 | 1.22 | 89.6 | SLC16A1 | 3
0.492 | 91.7 | 0.288 | 95 | ENTREP3 | 1
0.119 | 84.2 | -0.094 | 96.5 | ENTREP3 | 2
2.63 | 134 | 2.53 | 77 | ENTREP3 | 3
3.36 (active) | 149 | 2.15 | 94.3 | CCN3 | 1
-0.269 | 76.5 | 0.178 | 81.6 | CCN3 | 2
0.432 | 90.5 | -0.444 | 114 | CCN3 | 3

Continued (9 carried over from the part before).
total luciferase, z-score | total luciferase, % of control | luciferase per cell, z-score | viable cells, % of control | target | reagent no.
-1.1 | 60 | -1.25 | 93.1 | SLC16A1 | 1
-1.81 | 45.8 | -2.57 | 101 | SLC16A1 | 2
1.45 | 111 | 1.22 | 89.6 | SLC16A1 | 3
0.492 | 91.7 | 0.288 | 95 | ENTREP3 | 1
0.119 | 84.2 | -0.094 | 96.5 | ENTREP3 | 2
2.63 | 134 | 2.53 | 77 | ENTREP3 | 3
3.36 (active) | 149 | 2.15 | 94.3 | CCN3 | 1
-0.269 | 76.5 | 0.178 | 81.6 | CCN3 | 2
0.432 | 90.5 | -0.444 | 114 | CCN3 | 3
1.11 | 104 | 1.28 | 82.9 | GUK1 | 1
0.503 | 91.9 | 0.905 | 80.9 | GUK1 | 2
3.15 (active) | 145 | 1.39 | 112 | GUK1 | 3
-1.24 | 57.2 | -0.974 | 82.6 | RPS6KA1 | 1
-0.371 | 74.5 | -0.22 | 88.2 | RPS6KA1 | 2
-1.91 | 43.9 | -2.96 | 107 | RPS6KA1 | 3
0.0308 | 82.5 | 0.663 | 77.4 | OR4C16 | 1
0.137 | 84.6 | 0.329 | 86.7 | OR4C16 | 2
2.94 | 140 | 1.73 | 99.5 | OR4C16 | 3
0.721 | 96.2 | 0.165 | 103 | KLHL22 | 1
-0.299 | 75.9 | -0.824 | 105 | KLHL22 | 2
-0.0794 | 80.3 | -0.478 | 102 | KLHL22 | 3
-0.739 | 67.2 | 0.383 | 67.9 | ZNF707 | 1
-0.388 | 74.2 | 0.127 | 80.1 | ZNF707 | 2
-1.46 | 52.8 | -1.31 | 83.3 | ZNF707 | 3
1.63 | 114 | 1.1 | 95.7 | GPR149 | 1
-0.322 | 75.5 | -0.823 | 105 | GPR149 | 2
-1.57 | 50.6 | -1.89 | 93.1 | GPR149 | 3
-1.55 | 51.1 | 1.56 | 37.9 | RPL3 | 1
-2.62 | 29.7 | -0.673 | 39.6 | RPL3 | 2
-2.67 | 28.8 | -2.3 | 58.9 | RPL3 | 3
-0.0449 | 81 | 0.577 | 77.8 | CRYBB1 | 1
-0.328 | 75.4 | 0.163 | 80.7 | CRYBB1 | 2
-1.12 | 59.7 | -0.0229 | 67.1 | CRYBB1 | 3
-0.494 | 72.1 | -0.472 | 91.2 | SMURF1 | 1
-2.33 | 35.5 | -1.78 | 63.4 | SMURF1 | 2
-0.14 | 79.1 | -0.167 | 92.4 | SMURF1 | 3
0.591 | 93.6 | -0.0169 | 105 | CD22 | 1
-0.635 | 69.3 | -1.09 | 103 | CD22 | 2
-1.03 | 61.4 | -0.736 | 83.3 | CD22 | 3
-0.619 | 69.6 | -0.334 | 84.9 | CFAP43 | 1
-0.246 | 77 | -0.0999 | 88.3 | CFAP43 | 2
0.224 | 86.3 | 0.316 | 88.8 | CFAP43 | 3
-0.173 | 78.4 | -0.606 | 103 | MCOLN3 | 1
-1.15 | 59 | -1.58 | 100 | MCOLN3 | 2
-0.938 | 63.2 | -1.3 | 99.6 | MCOLN3 | 3
